Data as given in patent publication EP1283052A1, “Pharmaceutical composition containing caspase-8 and /or caspase-9 useful for overcoming glucocorticoid- and cancer therapy-induced apoptosis of tumours” (Deutsches Krebsforschungszentrum Stiftung des öffentlichen …, priority 2001, dated 2003).
For at least one compound, name, drawing or mass did not settle the structure.

System: caspase-8
Assay: Fluorometric caspase-8 activity assay in P693 cells
Assay type: cell-based, human
Conditions: cisplatin in the presence of DEX, Fig. 2b
Experimental: • (a) Left: P5 an CEM cells were treated with cisplatin (1-5 µg/ml) in the absence or presence of DEX (1 µM) as indicated. Proteins were extracted and expression of CD95-L, TRAIL or TNF-α was detected by Western blot analysis. The size of the proteins in kDa is indicated. Right: HeLa and P5 were treated with CD95 agonistic antibody αAPO-1 (CD95, 1 µg/ml), recombinant TRAIL protein (TRAIL, 100 ng/ml) or recombinant TNF-α protein (TNF-α, 100 ng/ml) in the absence (white bars) or presence (black bars) of DEX (1 µM). 24 h later the percentage of apoptosis was determined by annexin-staining and FACS-analysis in untreated (CO) and stimulated cells at the time points indicated. • (b) P693 and CEM cells were treated with cisplatin (2 µg/ml) in the absence or presence of DEX as indicated. 24 and 48 h following treatment cells were lysed and caspase-8 activity was determined by a fluorescent caspase-8 assay and spectroscopy. • (c) P5 cells were stable transfected with empty vector (pcDNA3), or pcDNA3 vector encoding dominant negative FADD protein (FADD-DN). Proteins were extracted from both cell lines and expression of wildtype (WT) and FADD-DN (DN) was detected by Western blot. Left: Stable transfected P5 cells were treated with αAPO-1 (1 µg/ml) and 24 h later apoptosis was determined by staining with annexin/propidium iodide and flow-cytometry. […]

Which “increase in caspase-8 activity” value does the source give for `C[C@@H]1C[C@H]2[C@@H]3CCC4=CC(=O)C=C[C@]4(C)[C@@]3(F)[C@@H](O)C[C@]2(C)[C@@]1(O)C(=O)CO` [DEX, dexamethasone] here?
Its value is “completely blocked”.
